Data reported in PubChem BioAssay AID1439 (NMMLSC, 2008).
The campaign covered roughly 220,000 compounds. About 770 (0.35%) were called active. The shares of active, inactive and inconclusive entries below differ from those in the screen. Cut-off read from the data, not from the text of the source: active = binding response below about 49% or above about 150%; inconclusive = no clear call, values can overlap the other calls; inactive = in between.

Sequences of proteins named here, by UniProt entry; tags and fusion partners are left off.
UniProt P09471, whole entry, looked up: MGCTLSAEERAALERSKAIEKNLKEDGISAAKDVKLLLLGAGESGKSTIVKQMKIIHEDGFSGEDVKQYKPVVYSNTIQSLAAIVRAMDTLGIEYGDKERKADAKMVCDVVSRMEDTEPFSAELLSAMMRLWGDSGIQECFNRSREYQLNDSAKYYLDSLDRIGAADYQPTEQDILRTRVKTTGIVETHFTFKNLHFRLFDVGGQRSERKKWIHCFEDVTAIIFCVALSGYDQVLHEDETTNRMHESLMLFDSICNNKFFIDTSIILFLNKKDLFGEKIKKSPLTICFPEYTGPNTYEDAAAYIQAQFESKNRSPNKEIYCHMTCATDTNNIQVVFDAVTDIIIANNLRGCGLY

The compounds below were run against Guanine nucleotide-binding protein G(o) subunit alpha (Homo sapiens) (UniProt P09471) (assay: RGS7-Galphao binding modulators, primary screen, biochemical, multiplexed bead flow cytometry (AID 1439;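 note: fluorescent Galphao held in activated GDP-AlF4 state binding bead-coupled RGS7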)). Settings: at 10 µM, actives lie on both sides.

Row | Structure (SMILES) | binding response (% of control)
1 | CCOC(=O)c1cccc(NC(=O)CSc2nnc(C)n2Cc2ccccc2)c1 | inactive: 93.9%
2 | CCOC(=O)C1CC(=O)c2cc(OC)c(OC)cc2C1 (stereo not drawn) | inconclusive: 183%
3 | COc1ccc(N=Nc2ccc(N)nc2N)cc1 | inconclusive: 82.6%
4 | Cc1sc(N2C(=O)C3C(C2=O)[C@H]2C=C[C@@H]3C2)c(C#N)c1C (stereo partly drawn) | inconclusive: 109%
5 | COc1ccc(-c2csc(NC(=O)c3ccccc3NS(=O)(=O)c3ccc(F)c(F)c3)n2)cc1 | inconclusive: 102%
6 | O=C(N/N=C/c1ccco1)c1csc2c1CCCC2 | inconclusive: 57.3%
7 | Cc1onc(-c2c(Cl)cccc2Cl)c1NC(=O)NNc1ccccc1 | inconclusive: 105%
8 | CCC(=O)N(CC(=O)Nc1sc(C)c(C)c1C(N)=O)Cc1ccc(F)cc1 | inconclusive: 81.3%
9 | Cc1ccc(NC(=O)CCNC(=O)c2ccco2)cc1F | inconclusive: 101%
10 | CC(=O)Nc1cc(C)c2nc(NC(C)=O)sc2c1 | inconclusive: 86.5%
11 | Cc1cc(C)nc(NS(=O)(=O)c2ccc(NC(=O)Nc3ccccc3F)cc2)n1 | inconclusive: 79.6%
12 | Cc1ccc(-c2nc(SCC(=O)Nc3ccccc3OC(F)F)c3c(C)c(C(=O)O)sc3n2)cc1 | inconclusive: 103%
13 | COc1cccc2cc(C(C)=O)oc12 | inactive: 95.5%
14 | CCc1nnc(NC(=O)c2cc(-c3ccncc3)nc3ccccc23)s1 | inconclusive: 169%
15 | CC(C)C(=O)NNC(=O)c1csc(-c2cccs2)n1 | inconclusive: 91.5%
16 | COc1ccc(Br)cc1CN(C)CC(=O)NCCc1ccccc1 | inactive: 96.2%
17 | CCOc1ccc(-n2c(SCC(N)=O)nc3sc4c(c3c2=O)CCN(C)C4)cc1 | inconclusive: 17.4%
18 | COc1cc2nc(CN(C)Cc3ccc(OC)c(OC)c3OC)[nH]c(=O)c2cc1OC | inactive: 97.9%
19 | CCN1CCN(Cc2ccc(NC(=O)c3ccc(C)c(NC(=O)c4csc(-c5ccncc5)n4)c3)cc2C(F)(F)F)CC1 | inconclusive: 77.7%
20 | O=C(O)C1CCN(C(=O)c2csc(-c3ccc4c(c3)CCO4)n2)CC1 | inconclusive: 91.6%
21 | CC(C)(C)Cc1nnc(NS(=O)(=O)c2ccccc2)s1 | inactive: 97.3%
22 | COc1ccc(NC(C)=O)cc1S(=O)(=O)N1CCN(C/C=C/c2ccccc2)CC1 | inconclusive: 86.2%

Row | Structure (SMILES) | binding response (% of control)
23 | Cc1ccc(/C=N/NC(=O)c2n[nH]c3c2CCCC3)cc1 | inconclusive: 126%
24 | c1ccc(Oc2ccc(-c3ccn[nH]3)cc2)cc1 | inconclusive: 165%
25 | O=C(CN1CCc2ccccc21)NC(=O)NC1CCCCC1 | inconclusive: 81.3%
26 | CCCN(C(=O)C(=O)Nc1ccc2nc3n(c(=O)c2c1)CCCCC3)c1ccc(OCC)cc1 | inconclusive: 106%
27 | O=C(Nc1ccc(N2CCN(c3ccc(C(F)(F)F)cn3)CC2)nc1)c1cccs1 | inconclusive: 75.7%
28 | O=C(CCSc1ccccc1)Nc1nnc(-c2cccs2)o1 | inactive: 78.8%
29 | O=C(c1cnn(C(=O)COc2ccccc2F)c1)c1cc(F)ccc1O | inconclusive: 92.3%
30 | O=C(COC(=O)c1ccc[nH]c1=O)NC1CCCc2ccccc21 (stereo not drawn) | inconclusive: 116%
31 | O=C(Oc1cc(Cl)ccc1Cl)c1ccc(N2CCOCC2)c([N+](=O)[O-])c1 | inactive: 95.5%
32 | Cc1cc(C)cc(NC(=O)Nc2ccc(Cl)cn2)c1 | inactive: 89.2%
33 | Cn1c(SCC(=O)O)nnc1-c1ccc(NC(=O)c2ccc(Cl)c(Cl)c2)cc1 | inconclusive: 108%
34 | COc1cc(/C=N/Nc2nc(C)nc3c2cnn3-c2ccccc2)ccc1O | inactive: 101%
35 | C=CCNC(=S)N/N=C/c1ccc(C)s1 | inconclusive: 94.5%
36 | CC(C)(C)CN1C(=O)C(=O)NC[C@@H]1Cc1ccc(O)cc1 | inconclusive: 82.5%
37 | O=C(C1=C[C@H](c2coc3ccccc3c2=O)C[C@H](OCCCCO)O1)N1CCN(Cc2ccc3c(c2)OCO3)CC1 | inactive: 97.4%
38 | COc1cc2c(cc1OC)[C@H](C)N(C(=S)Nc1ccc(F)cc1)CC2 | inconclusive: 51.6%
39 | Cc1cccc(C)c1NCc1n[nH]c(=S)n1-c1ccccc1 | inconclusive: 115%
40 | Clc1ccc(C[n+]2cc(-c3ccccc3)n3c2CCCCC3)c(Cl)c1 | inconclusive: 88.7%
41 | COCCN(C(=O)c1ccccc1OC)c1nnc(C)s1 | inconclusive: 98%
42 | O=C(NCCc1ccccc1)c1ccc(-n2cnnn2)cc1 | inactive: 89.8%
43 | S=C(Sc1ccc(Cl)cc1)Sc1ccc(Cl)cc1 | inconclusive: 103%
44 | Cc1cccc(NC(=O)CSc2nnc(CCNC(=O)OC(C)(C)C)o2)c1C | inconclusive: 77.8%

Structures shown so far that contain an aryl methoxy group:
Row | Structure (SMILES) | binding response (% of control)
2 | CCOC(=O)C1CC(=O)c2cc(OC)c(OC)cc2C1 (stereo not drawn) | inconclusive: 183%
3 | COc1ccc(N=Nc2ccc(N)nc2N)cc1 | inconclusive: 82.6%
5 | COc1ccc(-c2csc(NC(=O)c3ccccc3NS(=O)(=O)c3ccc(F)c(F)c3)n2)cc1 | inconclusive: 102%
13 | COc1cccc2cc(C(C)=O)oc12 | inactive: 95.5%
16 | COc1ccc(Br)cc1CN(C)CC(=O)NCCc1ccccc1 | inactive: 96.2%
18 | COc1cc2nc(CN(C)Cc3ccc(OC)c(OC)c3OC)[nH]c(=O)c2cc1OC | inactive: 97.9%
22 | COc1ccc(NC(C)=O)cc1S(=O)(=O)N1CCN(C/C=C/c2ccccc2)CC1 | inconclusive: 86.2%
34 | COc1cc(/C=N/Nc2nc(C)nc3c2cnn3-c2ccccc2)ccc1O | inactive: 101%
38 | COc1cc2c(cc1OC)[C@H](C)N(C(=S)Nc1ccc(F)cc1)CC2 | inconclusive: 51.6%
41 | COCCN(C(=O)c1ccccc1OC)c1nnc(C)s1 | inconclusive: 98%

Remaining list, next part:

Row | Structure (SMILES) | binding response (% of control)
45 | CCCNS(=O)(=O)c1ccc(OCC(=O)Nc2ccc3c(c2)OCO3)cc1 | inactive: 134%
46 | Cc1c(N=C2NN=C(c3c[nH]c4ccccc34)CS2)c(=O)n(-c2ccccc2)n1C | inconclusive: 7.77%
47 | O=C(COC(=O)c1cc[n+]([O-])cc1)Nc1ccc(SC(F)F)cc1 | inconclusive: 97.2%
48 | Cc1ccc(CN2CCN(/N=C/c3ccc(C(F)(F)F)cc3)CC2)c(C)c1 | inactive: 99.3%
49 | COc1ccc(CCNC(=S)NC(=O)c2c(-c3ccccc3Cl)noc2C)cc1OC | inconclusive: 69.7%
50 | O=C(O)CCn1cc(/C=C2\SC(=S)NC2=O)c(-c2ccccc2)n1 | inconclusive: 102%
51 | COc1ccc(CNc2nc(NCc3ccc(OC)cc3)c3[nH]cnc3n2)cc1 | inconclusive: 108%
52 | O=C(COc1ncnc2ccccc12)NCCc1ccccc1 | inconclusive: 110%
53 | COCCN(C(=O)/C=C/c1cccc([N+](=O)[O-])c1)c1c(N)n(Cc2ccccc2)c(=O)[nH]c1=O | inconclusive: 133%
54 | COc1cc(/C=C(\NC(C)=O)C(=O)O)cc(OC)c1OC | inconclusive: 88.6%
55 | N#Cc1nc(-c2ccc(OCc3ccccc3)cc2)oc1NCCCN1CCOCC1 | inactive: 97.2%
56 | CCc1ccc(C(=O)COC(=O)c2nn(C)c(=O)c3ccccc23)cc1 | inconclusive: 105%
57 | CN(C)S(=O)(=O)c1cccc(NC(=S)NCCc2ccccn2)c1 | inconclusive: 113%
58 | CN(C(=O)Nc1ccc(C(C)(C)C)cc1)C1CCCCC1 | inconclusive: 84%
59 | CCOc1cc(/C=N/NC(=O)C(=O)NCC2CCCO2)ccc1OCC(=O)N1CCOCC1 (stereo not drawn) | inconclusive: 114%
60 | O=C(O)COc1ccc(F)cc1Br | inconclusive: 17.3%
61 | CCCCCC(=O)Nc1cccc(C2=NOC3(C2)C[C@@H](C(N)=O)N(C(=O)CC(c2ccccc2)c2ccccc2)C3)c1 (stereo partly drawn) | inconclusive: 86.7%
62 | O=C(N[C@@H](Cc1ccccc1)C(=O)OCc1ccccc1)c1nc[nH]c1C(=O)N1CCc2ccccc2C1 | inconclusive: 122%
63 | COC(=O)c1ccc(S(=O)(=O)N2CCCCCC2)n1C | inconclusive: 83.5%
64 | Cc1ccc(C#N)c(SCC(=O)Nc2nccs2)n1 | inconclusive: 129%
65 | C=CCNC(=S)NNC(=O)c1cc(Cl)ccc1OC | inconclusive: 201%
66 | Cc1cccn2c(CN(C)CCC3CCCCO3)c(C(=O)N3CCCCC3)nc12 (stereo not drawn) | inactive: 89%

Random excerpt: two entries already listed
Row | Structure (SMILES) | binding response (% of control)
17 | CCOc1ccc(-n2c(SCC(N)=O)nc3sc4c(c3c2=O)CCN(C)C4)cc1 | inconclusive: 17.4%
63 | COC(=O)c1ccc(S(=O)(=O)N2CCCCCC2)n1C | inconclusive: 83.5%

More structures.

Row | Structure (SMILES) | binding response (% of control)
67 | Cc1nn(Cc2ccccc2)c(Cl)c1/C=N/NC(=O)c1cccnc1 | inactive: 99.6%
68 | COc1ccccc1-n1c(-c2cc(-c3ccco3)[nH]n2)n[nH]c1=S | inconclusive: -527%
69 | O=c1[nH]c2ccccc2n1C1=CCNCC1 | inconclusive: 97.6%
70 | O=C(NNS(=O)(=O)c1ccccc1F)c1cc(-c2ccccc2)n[nH]1 | inconclusive: 63.4%
71 | CN1C(C(=O)NCc2ccco2)CC2Cn3c(nc4cc(Cl)c(Cl)cc43)C21 (stereo not drawn) | inconclusive: 109%
72 | Cc1ccc(S(=O)(=O)n2c(=O)oc3ccccc32)cc1 | inconclusive: 116%
73 | CC(=O)Nc1ccc(S(=O)(=O)Oc2cccc(/C=N/N=C3/NC(=O)C(CC(=O)O)S3)c2)cc1 (stereo not drawn) | inconclusive: 112%
74 | COc1ccc(C2/C=C\CN(S(=O)(=O)c3cccc4cccnc34)CC(=O)N2Cc2ccc(F)cc2)cc1 (stereo not drawn) | inconclusive: 120%
75 | CCOC(=O)c1cn2nc(Oc3ccc(C#N)cc3)ccc2n1 | inconclusive: 120%
76 | COc1cc(OC)c(/C=N/NC(=O)c2ccc(Cn3nc([N+](=O)[O-])cc3C)cc2)c(OC)c1 | inconclusive: 136%
77 | Nc1c(C(=O)O)ccc2c1C(=O)c1ccccc1C2=O | inconclusive: 111%
78 | CC(=O)c1c(C)[nH]c(C(=O)Nc2ccc(C)c(S(=O)(=O)Nc3ccc(C)cc3C)c2)c1C | inconclusive: 127%
79 | COc1cc(C(=O)NCC(=O)OCc2cc(=O)oc3c(C)c(C)ccc23)cc(OC)c1OC | inconclusive: 84%
80 | O=C(NNc1c(F)c(F)cc(F)c1F)c1cc2ccccc2oc1=O | inactive: 95.6%
81 | Cc1cc(N2CCOCC2)ccc1/C=C\[N+](=O)[O-] | inactive: 102%
82 | O=C(CNC1CCN(Cc2ccccc2)CC1)Nc1ccc(S(=O)(=O)N2CCCCC2)cc1 | inconclusive: 58.7%
83 | CN(Cc1cccs1)C(=O)c1ccc(S(=O)(=O)N2CCCCC2)cc1 | inconclusive: -9.21%
84 | CC(C)CNC(=O)COC(=O)c1ccccc1SCC(=O)NCC(C)C | inactive: 100%
85 | O=S(=O)(NCc1ccccn1)c1cc(OCC(F)(F)F)ccc1OCC(F)(F)F | inconclusive: 106%
86 | CCN(C(=O)COC(=O)c1cc(-c2ccccc2)nn1-c1ccccc1)C1CCS(=O)(=O)C1 (stereo not drawn) | inconclusive: 110%
87 | CCS(=O)(=O)n1nc(-c2ccco2)nc1N | inactive: 100%
88 | CCN(CC)C(=O)Oc1ccc(Br)cc1C(=O)Nc1ccc(F)cc1F | inconclusive: 33.4%
